The values that follow come from PMC7819943, “Rice protein-binding microarrays: a tool to detect cis-acting elements near promoter regions in rice”.

Some of the results follow.

This test deals with T1, OsSMF1 (Oryza sativa, UniProt Q6ZLB0 1-436).
T1 sequence: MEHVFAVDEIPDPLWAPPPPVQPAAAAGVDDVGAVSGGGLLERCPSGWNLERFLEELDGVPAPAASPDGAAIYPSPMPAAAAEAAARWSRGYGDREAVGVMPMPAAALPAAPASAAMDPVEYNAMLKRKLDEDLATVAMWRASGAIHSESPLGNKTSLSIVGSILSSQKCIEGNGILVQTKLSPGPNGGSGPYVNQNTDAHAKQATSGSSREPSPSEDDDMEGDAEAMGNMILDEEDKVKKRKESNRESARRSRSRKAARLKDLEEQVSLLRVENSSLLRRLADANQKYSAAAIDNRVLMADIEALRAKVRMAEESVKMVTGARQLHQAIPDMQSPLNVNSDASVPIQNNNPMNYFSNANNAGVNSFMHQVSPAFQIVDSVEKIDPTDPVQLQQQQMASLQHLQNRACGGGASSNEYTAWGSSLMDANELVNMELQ
The test is described as follows: protein-binding microarray (RPBM); PBS, 2% BSA, 51.3 ng/ul salmon testes DNA, 50 uM zinc acetate, 200 nM TF, 25 C, 1 h; high values mean tight binding. Conditions: protein: recombinant; tags: N-terminal polyhistidine and DsRed monomer fusion (pET32a); chain copies: 2; label: CyDye5-dUTP incorporated in the synthesized complementary strand; 3' TTTTT single-stranded linker to array surface; dsDNA, one strand shown. Put shortly:
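A custom Agilent array was converted to double-stranded form by primer extension with Cy5-dUTP and blocked with 2% BSA. Protein at 200 nM in PBS with 2% BSA, salmon testes DNA and 50 µM zinc acetate was applied for 1 h at 25 °C, followed by washing. The proteins were polyhistidine–DsRed N-terminal fusions of transcription factors, expressed in E. coli BL21-CodonPlus and Ni–NTA-purified. The binding signal is per-feature fluorescence intensity (arbitrary units) from an Axon 4000B scanner.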
With “CTGGGCGGCTTCTGGGGCGAACCACGTCGGATTTACTGTACGGAGTCACCTAGTGCAG”, the binding signal is 7570 fluorescence intensity (a.u.).

On to “ATTCCTCCATGAACGTAGCCCACCATACACCACCCCTCTCCGGAGTCACCTAGTGCAG”, for which the binding signal is 4620 fluorescence intensity (a.u.).

Consider “TAGGGACCAGGATGACACAACAGTACAAGTTTAGGGACCGCGGAGTCACCTAGTGCAG”, for which the binding signal was 3350 fluorescence intensity (a.u.).

Regarding “CTCTCTCTCCCTCTCCTCTCGGGCAAGCTAGCCGGCGGGTCGGAGTCACCTAGTGCAG”, the binding signal is 3170 fluorescence intensity (a.u.).

With “GCAAAGTAACCACTACGTGGTGTTTGCTGAGGAAGTTTTCCGGAGTCACCTAGTGCAG”, the binding signal was 3760 fluorescence intensity (a.u.).

As for “ACGACGACGACGACGATGAGGTGGCGCCGCCGGCTCCGCACGGAGTCACCTAGTGCAG”, the binding signal is 8670 fluorescence intensity (a.u.).

For “ACCACCACCAGTCCACCACACCCGGCTCACGTAGACCGCGCGGAGTCACCTAGTGCAG”, the binding signal is 4950 fluorescence intensity (a.u.).

As for “TGGCCAATTGGGAGTGGTTGCCCATTTGCCATGTCAACGCCGGAGTCACCTAGTGCAG”, the binding signal is 6130 fluorescence intensity (a.u.).

As for “GCCTCGCCTCCTCACGCGAGCCACTGCTGTCGCCGCACCACGGAGTCACCTAGTGCAG”, the binding signal is 3620 fluorescence intensity (a.u.).

As to “AGCACAATGCGTGGCAGATTGAATGCCTGCGTGTCAGACTCGGAGTCACCTAGTGCAG”, the binding signal is 11800 fluorescence intensity (a.u.).

In the case of “TTTGAATACAATTGTAATTTGAGCCATTAGTGACTGTATGCGGAGTCACCTAGTGCAG”, the binding signal was 4140 fluorescence intensity (a.u.).

Take “GAGGACGGCGTTGCGTTGGCGGTTGGGCGTCTCGTCCCGTCGGAGTCACCTAGTGCAG”: the binding signal was 3320 fluorescence intensity (a.u.).

“TAACTTATTTGGGGCATGTAATCAGTGCTGCTGGGGTATCCGGAGTCACCTAGTGCAG”: the binding signal is 25000 fluorescence intensity (a.u.).

Take “GTAGATGCTTCACTTGGAGGAGAGTTGATGTTGTTGTCCACGGAGTCACCTAGTGCAG”: the binding signal was 3660 fluorescence intensity (a.u.).

Regarding “AATAAAGTTGGGTGGTTGGGGCGCGCGATAGGAGTAAATCCGGAGTCACCTAGTGCAG”, the binding signal was 4140 fluorescence intensity (a.u.).

In the case of “GTATCTGAACCCATCAAATACGTCACAAATTAAGGCATCCCGGAGTCACCTAGTGCAG”, the binding signal was 4220 fluorescence intensity (a.u.).

As for “TAACAAATGCTTTTATTAATCATTCATCATGTGACATATCCGGAGTCACCTAGTGCAG”, the binding signal is 3210 fluorescence intensity (a.u.).

Regarding “ACTATTGTTTGGTAGTAAAATTGATAATTAAATGACTATACGGAGTCACCTAGTGCAG”, the binding signal was 40900 fluorescence intensity (a.u.).

In the case of “GGTCTTCAAAATACAACTTGGAATACGTGTACGTTGTTCTCGGAGTCACCTAGTGCAG”, the binding signal was 4740 fluorescence intensity (a.u.).

Take “GGGAACGTCGAGCGGCGCCATCGTCACGTTGAGCACCGTGCGGAGTCACCTAGTGCAG”: the binding signal is 4750 fluorescence intensity (a.u.).

As for “CATTTGCGTGCCTGATTAATCCTCTCGTCATCTCACCTCACGGAGTCACCTAGTGCAG”, the binding signal was 4550 fluorescence intensity (a.u.).

In the case of “GCACAATCTGTCTCTAGCTAGCCCAGCAGCGTTCAGATCGCGGAGTCACCTAGTGCAG”, the binding signal was 3250 fluorescence intensity (a.u.).

Take “TCTTCTGCCGCTGCTGCCACGCGCCGCCTCGACGCCGCCCCGGAGTCACCTAGTGCAG”: the binding signal is 3230 fluorescence intensity (a.u.).

For the sequence “CTGGCCCGGGGTCGGGTGCGACGCGCGGGCGGGGCGGGTGCGGAGTCACCTAGTGCAG”, the binding signal is 6090 fluorescence intensity (a.u.).

On to “CGCGCTCGTCCAGAGCGTCACGCGCGTGTGCGGCGTCGACCGGAGTCACCTAGTGCAG”, for which the binding signal was 4330 fluorescence intensity (a.u.).

As to “AGCAGAGTGATCTCTGATGGTCACGGGCCGAGAAGGGAAGCGGAGTCACCTAGTGCAG”, the binding signal was 45700 fluorescence intensity (a.u.).

With “TTTATTGTGACTTAGAACTTCAATTTTCACTTTAGTAATGCGGAGTCACCTAGTGCAG”, the binding signal is 21300 fluorescence intensity (a.u.).

With “TATAGTCTTGCATATTTCACCGTTTTGTTGTCGTCAATTTCGGAGTCACCTAGTGCAG”, the binding signal is 3990 fluorescence intensity (a.u.).

Regarding “GGTTACTAAACTTGTTAAGGAGATGGAGTAAGTCATCATGCGGAGTCACCTAGTGCAG”, the binding signal was 3750 fluorescence intensity (a.u.).

For “CCCTTCAGCACCTGTTATGTGGTCAAGGTGACGGTCAGATCGGAGTCACCTAGTGCAG”, the binding signal was 3710 fluorescence intensity (a.u.).

Turning to “CTTGTGCAGTGGCGGAGACCGGAGTGATCAGGCAGCCGATCGGAGTCACCTAGTGCAG”, the binding signal was 3340 fluorescence intensity (a.u.).

For “CAAAACGATGTGACCTAGTATGAATCTGGATAGATCGTATCGGAGTCACCTAGTGCAG”, the binding signal was 3740 fluorescence intensity (a.u.).

As for “GCGCTGTGGTGGTGTGCATGCGTGGCGGTTAGGGTGGAGGCGGAGTCACCTAGTGCAG”, the binding signal was 8430 fluorescence intensity (a.u.).

As for “AGAGTGAGAGAGATGCTGTGTCTGGTAGAGTGTCTTTTATCGGAGTCACCTAGTGCAG”, the binding signal was 3150 fluorescence intensity (a.u.).

With “ACTCCTTCGCCTTTTCCCCTTTCCACGTCAGCGACGCGCACGGAGTCACCTAGTGCAG”, the binding signal was 35800 fluorescence intensity (a.u.).

Take “TTGATTTAGTCCATTTAATGAATGGTGCGTCACACTAAAACGGAGTCACCTAGTGCAG”: the binding signal was 4780 fluorescence intensity (a.u.).

For “GGACTGATTTGCCTTTGCCCTTGCCGGCGCAGTCCAACCACGGAGTCACCTAGTGCAG”, the binding signal is 3530 fluorescence intensity (a.u.).

Turning to “CGAAAAGGAGGAAATGGCAGCACAACTCATGTCCAGTATACGGAGTCACCTAGTGCAG”, the binding signal was 3170 fluorescence intensity (a.u.).

Regarding “TGGAAACATGATGAGAAATGCTGCGATTGTCTTCCACTAACGGAGTCACCTAGTGCAG”, the binding signal is 4360 fluorescence intensity (a.u.).

With “TTTAGGCCTCCATCATAAAGATCATCACAACTAGCTTCACCGGAGTCACCTAGTGCAG”, the binding signal was 19500 fluorescence intensity (a.u.).

With “AATATTAAGAGTAGTTTCAACTGACATGATGCTTATCAAACGGAGTCACCTAGTGCAG”, the binding signal is 3290 fluorescence intensity (a.u.).

With “TGCGCCATTAGCGTCACATGGGGTGGGCTCTTGTACACTACGGAGTCACCTAGTGCAG”, the binding signal is 4460 fluorescence intensity (a.u.).

As to “CAACATCAGGAATGTTCAGGCCATACCATGTCAGCATGTACGGAGTCACCTAGTGCAG”, the binding signal was 5460 fluorescence intensity (a.u.).

Take “GTAGTTGCGTTTTCATATAATGGATATTATTTATTCATGTCGGAGTCACCTAGTGCAG”: the binding signal is 3190 fluorescence intensity (a.u.).

Consider “ACAACCAGGTCACCGTGCGATCGATCGATTGCTAATTTATCGGAGTCACCTAGTGCAG”, for which the binding signal is 3480 fluorescence intensity (a.u.).

Take “AGGCACGCGTGAGTTCGTGACGTTTCTCGCGCACGGCGCGCGGAGTCACCTAGTGCAG”: the binding signal was 4890 fluorescence intensity (a.u.).

For “GGAAAGCGAGCCAATCCGTGGCCGAATGCTAACCTTTCCCCGGAGTCACCTAGTGCAG”, the binding signal was 3180 fluorescence intensity (a.u.).

Turning to “TTGGTAATTTCATTCAGACATTGTTTGCAAGATTGCACCACGGAGTCACCTAGTGCAG”, the binding signal was 3200 fluorescence intensity (a.u.).

Take “GCAGATATATACTGTAGCGATGGAGTAATATGATCGTCGACGGAGTCACCTAGTGCAG”: the binding signal was 4150 fluorescence intensity (a.u.).

As to “AAAGTTTGTATACACGTATACAAAGTTTATATACGTGTATCGGAGTCACCTAGTGCAG”, the binding signal was 4700 fluorescence intensity (a.u.).

Regarding “CTCTCTCTCTCGCCTCCGCCTCATCATCCTCTCCTCTCCTCGGAGTCACCTAGTGCAG”, the binding signal was 3240 fluorescence intensity (a.u.).

As to “TGTTGCACATGTCCCTTTCTTCCATCGTCACAACCTTCAGCGGAGTCACCTAGTGCAG”, the binding signal is 10900 fluorescence intensity (a.u.).

With “CCCCAATCAACTTCTTCAATTATCCATGCATTCCTTACGCCGGAGTCACCTAGTGCAG”, the binding signal was 29000 fluorescence intensity (a.u.).

In the case of “GTAACTACTAGTACCTGCCACCTCCCAGTTGCTCAGGCTTCGGAGTCACCTAGTGCAG”, the binding signal is 3150 fluorescence intensity (a.u.).
